Drawing on paper PMC12134396, this text covers binding for two substances.

Protein sequences, listed by entry. Tags and fused reporters are not part of them.
UniProt P42771: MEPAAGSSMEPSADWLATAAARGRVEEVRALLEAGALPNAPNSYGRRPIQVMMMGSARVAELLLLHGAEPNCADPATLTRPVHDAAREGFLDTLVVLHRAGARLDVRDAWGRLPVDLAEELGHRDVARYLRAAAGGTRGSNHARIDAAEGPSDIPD
UniProt P40763: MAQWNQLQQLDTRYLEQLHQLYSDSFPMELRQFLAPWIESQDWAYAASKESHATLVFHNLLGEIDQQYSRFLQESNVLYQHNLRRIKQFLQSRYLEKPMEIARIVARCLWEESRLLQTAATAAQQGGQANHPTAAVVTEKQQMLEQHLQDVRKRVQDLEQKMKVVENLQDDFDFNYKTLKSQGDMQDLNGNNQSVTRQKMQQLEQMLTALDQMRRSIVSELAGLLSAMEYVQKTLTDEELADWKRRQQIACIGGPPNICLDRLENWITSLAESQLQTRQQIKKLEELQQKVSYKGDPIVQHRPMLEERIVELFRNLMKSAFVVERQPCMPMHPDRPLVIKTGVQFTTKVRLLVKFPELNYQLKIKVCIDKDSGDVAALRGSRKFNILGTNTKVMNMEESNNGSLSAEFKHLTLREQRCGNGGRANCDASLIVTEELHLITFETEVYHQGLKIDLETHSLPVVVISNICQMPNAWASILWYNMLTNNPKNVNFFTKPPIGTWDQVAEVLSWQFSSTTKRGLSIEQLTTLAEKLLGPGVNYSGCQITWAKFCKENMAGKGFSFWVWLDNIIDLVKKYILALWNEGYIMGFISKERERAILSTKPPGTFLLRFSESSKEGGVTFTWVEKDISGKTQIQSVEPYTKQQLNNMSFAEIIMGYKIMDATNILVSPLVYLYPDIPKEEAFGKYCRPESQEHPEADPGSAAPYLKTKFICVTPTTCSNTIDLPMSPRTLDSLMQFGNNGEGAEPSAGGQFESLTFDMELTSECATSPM

The target in assay [1] is p16^INK4a, overexpressed from adenovirus in fibroblasts (p16-OE) (UniProt P42771). Description: co-IP; HCFB and MRC-5 cells with p16 overexpression adenovirus; anti-p16 or anti-STAT3 immunoprecipitation; Western blots for p16 and STAT3; cytoplasm and nuclei. (In general: Immunoblotting shows a protein as a band on a membrane.)
The target in assay [2] is Flag-p16 (human), from overexpression adenovirus in HEK293T cells (human) (UniProt P42771). Description: co-IP; HEK293T cells with Flag-p16 adenovirus and Myc-STAT3 plasmid (full length or domain deletion mutants); anti-Myc or anti-Flag immunoprecipitation; Western blots for Myc and Flag.

No constants are given. Whether binding was seen depends on the method and setting. Binding seen in cells or lysates may run through a third protein. Some entries that bind do so weakly or less than the wild type.

Turning to “STAT3, endogenous in human fibroblasts (from UniProt P40763 1-770)”, the binding entry in assay [1] is “binds”.

“Myc-STAT3, full-length human STAT3 (from UniProt P40763 1-770)”: the binding entry in assay [2] is “binds”.
